Values quoted from earlier work in patent US20100242127A1, “METHODS TO IDENTIFY MODULATORS OF B-RAF PROTEIN KINASE AND THEIR USE FOR THE TREATMENT OF ANXIETY AND DEPRESSION” (HELMHOLTZ ZENTRUM MUNCHEN, priority 2007, published 2010).
At least one compound was matched to its structure with a doubt left.

Tested on: Erk
Settings: rat brain

## [Li] [lithium]
  Erk activation: stimulate Erk activation

## CCCC(CCC)C(=O)O [valproate]
  Erk activation: stimulate Erk activation
